Source: PubChem BioAssay (Tox21)
Several values for one entry are separate records, joined by “and”; a condition that tells them apart may be missing. Identical values can stand only once. Inconclusive results, whose numbers are uncertain, are shown with a selection of clear calls. Where the call is inconclusive, the potency comes from a doubtful curve fit. Activity calls are given as the source filed them. Unless noted, calls come from the whole dose curve.

test: Nuclear factor erythroid 2-related factor 2/antioxidant responsive element (Nrf2/ARE) small molecule agonists: luciferase reporter gene qHTS assay in human keratinocytes (AID 1919969); details: KeratinoSens HaCaT ARE-luciferase, luminescence, 24 h; activity, positive = activation: at 92.4 µM (top of the series); note: nearly all actives have a fitted effect of over 35% in size
% is set by controls: 0 for no effect and ±100 for the full control effect; potency is the fitted concentration of half-maximal effect.

SMILES	activity, positive = activation	Potency
CCCCCCCCCCCCCCCCCCO	inactive: 5.23% [at 42.5 µM]	–
Cc1cccc(C)c1NC(=O)CN(CC(=O)O)CC(=O)O	inactive: -2.49% [at 42.5 µM]	–
CCCCS	inactive: -4.11%	–
CCCOC(=O)c1c(Cl)c(Cl)c(Cl)c(Cl)c1C(=O)OCCC	–	inconclusive: 68.6 µM [activator]
CCC(C)c1cc([N+](=O)[O-])cc([N+](=O)[O-])c1OC(=O)OC(C)C (centres undefined)	–	active: 9.69 µM
C[C@@H]1NC(=O)[C@@H](N)CNC(=O)[C@H](C2CCNC(N)=N2)NC(=O)/C(=C/NC(N)=O)NC(=O)[C@H](CNC(=O)C[C@@H](N)CCCN)NC1=O (some centres undefined)	inactive: -0.551% [at 0.349 µM]	–
C[C@@H]1O[C@@H](O[C@@H]2[C@@H](O)[C@H](OCCc3ccc(O)c(O)c3)O[C@H](CO[C@@H]3O[C@H](CO)[C@@H](O)[C@H](O)[C@H]3O)[C@H]2OC(=O)/C=C/c2ccc(O)c(O)c2)[C@H](O)[C@H](O)[C@H]1O	inactive: 1.7%	–
CC1COc2ccccc2N1 (centres undefined)	–	active: 54.5 µM
Cc1c(N)cccc1C(F)(F)F	inactive: -0.459% [at 42.5 µM]	–
CC(=O)Oc1ccc(C(=C2CCCCC2)c2ccc(OC(C)=O)cc2)cc1	–	inconclusive: 33.5 µM [activator, single point]
CC(CNC1CCCCC1)OC(=O)c1ccccc1 (centres undefined)	inactive: 2.12% [at 42.5 µM]	–
O=C(Oc1ccccc1)Oc1ccccc1	–	inconclusive: 68.3 µM [activator, single point]
CN(C)C=O	–	inactive
C/C(=C(/OCCOc1ccc(Cl)cc1)c1ccc(Cl)cc1Cl)n1ccnc1	–	inconclusive: 13.3 µM [activator, single point]
C=C(C)C(=O)OCCOc1ccccc1	–	inconclusive: 68.6 µM [activator, single point]
CC(C)CCOC(=O)c1ccc(N(C)C)cc1	–	inconclusive: 11.9 µM [activator, partial curve]
CC(O)Cn1cnc2c1c(=O)n(C)c(=O)n2C (centres undefined)	inactive: -6.27% [at 42.5 µM]	–
CC(C)(O)c1coc(S(=O)(=O)NC(=O)Nc2c3c(cc4c2CCC4)CCC3)c1	–	active: 61.1 µM
C#CCN(C)CCCOc1ccc(Cl)cc1Cl	–	inconclusive: 21.1 µM [activator, partial curve, poor fit]
CC(C)S	inactive: -3.51%	–

SMILES	activity, positive = activation	Potency
CCN(CC)CCNC(=O)c1cc(Br)c(N)cc1OC	inactive: 0.158% [at 42.5 µM]	–
CCCCCSCCCCC	–	inconclusive: 68.6 µM [activator]
Cc1ccc(N(C)C)cc1	–	inconclusive: 61.1 µM [activator, partial curve, poor fit]
O=C(N[C@@H](c1ccccc1)[C@@H]1CCCCN1)c1cccc(C(F)(F)F)c1Cl	inactive: -41.5%	–
C=CC(=O)OCCC#N	–	inconclusive: 69 µM [activator, single point]
CCCCCC(CO)CCC (centres undefined)	–	inconclusive: 68.6 µM [activator, single point]
CN(C)CCc1c[nH]c2ccc(CS(=O)(=O)N3CCCC3)cc12	inactive: 2.22% [at 42.5 µM]	–
CC(=O)OC[C@H]1O[C@@H](n2ncc(=O)[nH]c2=O)[C@H](OC(C)=O)[C@@H]1OC(C)=O	inactive: 8.98% [at 42.5 µM]	–
O=C(O)/C=C\C(=O)O	–	inconclusive: 28.3 µM [activator, single point]
O=C(Cl)c1ccc(C(=O)Cl)cc1	–	inconclusive: 0.244 µM [activator, single point]
NC(=O)NS(=O)(=O)c1ccc(Cl)cc1	inactive: 0.0783% [at 42.5 µM]	–
O=P(O)(O)Oc1ccccc1	inactive: -0.823%	–
Clc1ccc2c(Cl)ccnc2c1	inactive: -0.724%	–
CC(COc1ccccc1)N(CCCl)Cc1ccccc1 (centres undefined)	–	inconclusive: 69.3 µM [activator, single point] and inconclusive: 68.6 µM [activator, single point] and inconclusive: 33.5 µM [activator, single point]
CCCCCCCCCCOC(C)=O	inactive: -8.93%	–
CN(C)Cc1cc(C(C)(C)C)c(O)c(C(C)(C)C)c1	–	inconclusive: 61.1 µM [activator, single point]
CC(C)(c1ccc(Oc2ccc(N)cc2)cc1)c1ccc(Oc2ccc(N)cc2)cc1	–	inconclusive: 9.69 µM [activator, partial curve, poor fit]
CCCCCCCCCCCCCOC(=O)CCSCCC(=O)OCCCCCCCCCCCCC	inactive: 4.84% [at 19 µM]	–
CCOC(=O)C(C)Oc1ccc(Oc2cnc3cc(Cl)ccc3n2)cc1 (centres undefined)	–	inconclusive: 51 µM [activator, partial curve, poor fit]
c1cc(CN2CCCCC2)cc(OCCCNc2nc3ccccc3s2)c1	inactive: 0.5% [at 42.5 µM]	–

test: p53 small molecule agonists, cell-based qHTS assay (AID 1963582; active = well fitted activation curve with a large enough effect in the signal ratio in the repeat runs, not every such curve was filed as active; inconclusive = weak or mixed curves; the % refers to the signal ratio); details: HCT-116 p53RE-bla reporter, beta-lactamase FRET ratio, 16 h; activation: at 66 µM (top of the series) unless noted
Outline: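 Fluorescence intensity read-out of a beta-lactamase reporter under a p53 response element. Cells were exposed to DMSO-dissolved compounds for 16 h at 37 C, then developed with FRET substrate for 2 h at RT.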

SMILES	Potency	activation
CCCCS	inconclusive: 0.0148 µM [falling, full curve, poor fit]	–
CCCOC(=O)c1c(Cl)c(Cl)c(Cl)c(Cl)c1C(=O)OCCC	inconclusive: 18.2 µM [rising, full curve]	–
C[C@@H]1NC(=O)[C@@H](N)CNC(=O)[C@H](C2CCNC(N)=N2)NC(=O)/C(=C/NC(N)=O)NC(=O)[C@H](CNC(=O)C[C@@H](N)CCCN)NC1=O (some centres undefined)	–	inactive: 5.76% [at 0.249 µM]
CC1COc2ccccc2N1 (centres undefined)	–	inactive: -0.175%
Cc1c(N)cccc1C(F)(F)F	–	inactive: -3.36% [at 30.3 µM]
CN(C)C=O	inactive	–
CC(O)Cn1cnc2c1c(=O)n(C)c(=O)n2C (centres undefined)	–	inactive: 0.769% [at 30.3 µM]
CC(C)S	–	inactive: 0.348%
CCCCCSCCCCC	inconclusive: 1.15 µM [rising, full curve, poor fit]	–
CCCCCC(CO)CCC (centres undefined)	–	inactive: -1.96%
CC(=O)OC[C@H]1O[C@@H](n2ncc(=O)[nH]c2=O)[C@H](OC(C)=O)[C@@H]1OC(C)=O	active: 0.5 µM	–
O=C(Cl)c1ccc(C(=O)Cl)cc1	inactive	–
O=P(O)(O)Oc1ccccc1	–	inactive: -0.889%
CC(C)(c1ccc(Oc2ccc(N)cc2)cc1)c1ccc(Oc2ccc(N)cc2)cc1	–	inactive: 0.975%
